PubChem BioAssay AID602313 (National Center for Advancing Translational Sciences (NCATS), 2012)
Out of some 390,000 compounds screened, about 760 (0.19%) were called active. The shares of active, inactive and inconclusive entries below differ from those in the screen. The call rests on the fitted dose curve; in most records, active means well fitted inhibition curve with a large enough effect; inconclusive means small, poorly fitted or top-dose-only effect; inactive means flat fitted curve, though single readings scatter. Potencies beside an inconclusive call are fits to weak or partial responses and may not hold up.

Experiment: qHTS for Inhibitors of Vif-A3F Interactions: qHTS; further: nearly all actives have a fitted effect of over 65% in size
Conditions: HeLa A3F-eYFP + Vif (tagged APOBEC3F with the HIV-1 protein that degrades it), YFP fluorescence increase; series mostly up to 46.1 µM
From the text: The recent discovery and characterization of host restriction factors, which provide a potent defense to invading retroviruses, has provided new targets for antiviral drug development. APOBEC3G (A3G) and APOBEC3F (A3F) are potent cytidine deaminases that block HIV-1 replication; HIV-1 expresses the Vif protein, which counteracts A3G and A3F by binding to them and inducing their proteasomal degradation. The Vif-A3G and Vif-A3F interactions provide two potential targets for development of small molecules which can interfere with the ability of Vif to degrade A3G or A3F. […] To identify inhibitors that can interfere with Vif mediated degradation of A3G and A3F, we have developed Hela cell lines that stably express A3G or A3F tagged with eYFP at the C-terminal end (A3G-eYFP or A3F-eYFP, respectively) and Vif. In the absence of an inhibitor, Vif induces degradation of A3G-eYFP and A3F-eYFP, and the cells are not fluorescent. In the presence of an inhibitor, it is expected that Vif will be unable to degrade A3G-eYFP and/or A3F-eYFP, resulting in an increase in yellow fluorescence. In this assays Vif A3F was screened against the Molecular Library Small Molecule Repository (MLSMR). NIH Chemical Genomics Center [NCGC] NIH Molecular Libraries Probe Centers Network [MLPCN] MLPCN Grant: MH093245 Assay Submitter (PI): Vinay Pathak, National Cancer Institute
5 uL of 700 cells/well of A3F-YFP cells are dispensed into black, clear bottom plates. The plates are incubated overnight at 37 deg C. 23 nL of compounds are added by pintool. The plates are incubated overnight at 37 deg C and then read on the TTP Acumen (Ex 488/ Em 500-530).
Potency means the concentration at half of the fitted maximal effect.

Compound	Potency
Cc1ccc(NC(=O)C2CCN(c3nnc(C)c4c(C)n(-c5ccccc5)nc34)CC2)c(Cl)c1	inconclusive: 1.78 µM [inhibitor, partial curve, poor fit]
COc1ccc(NC(=O)COC(=O)c2cc(OC)c(OC)cc2NC(=O)c2ccco2)cc1OC	inconclusive: 17.8 µM [inhibitor, single point]
O=C(CSc1ccc2nnc(-c3ccccn3)n2n1)Nc1ccccc1F	inconclusive: 17.8 µM [inhibitor, single point]
COc1cc(C(=O)ON=C2C=C(C)C(=O)C(C)=C2)cc(OC)c1OC	inconclusive: 22.4 µM [inhibitor, single point]
COc1ccc2c(c1)c(=O)c(C(=O)c1ccc(F)cc1)cn2CC(=O)Nc1ccc2c(c1)OCO2	inconclusive: 35.5 µM [inhibitor, single point]
CCn1nc(C(=O)NNC(=O)CCOc2cc(C)ccc2C)c2ccccc2c1=O	inconclusive: 35.5 µM [inhibitor, single point]
COC(=O)c1sccc1NC(=O)c1cc(-c2cccc(C)c2)nc2ccccc12	inconclusive: 20 µM [inhibitor, partial curve, poor fit]
Cc1cc(NCc2ccccn2)n2ncc(-c3ccc(Cl)cc3)c2n1	inconclusive: 10 µM [inhibitor, partial curve, poor fit]
CCOc1cccc(NC(=O)/C(C#N)=C\c2cccnc2)c1	inconclusive: 3.16 µM [inhibitor, single point]
Cn1c(=O)c2c(nc(Cc3ccc(N)cc3)n2C)n(C)c1=O	inconclusive: 2.51 µM [inhibitor, full curve, poor fit]
COc1ccc(NC(=O)c2cc(=O)[nH]c(=O)[nH]2)cc1S(=O)(=O)Nc1ccccc1Cl	inconclusive: 35.5 µM [inhibitor, single point]
CCN(CC)c1ccc(/C=C2/C(=O)ON=C2C)cc1	inconclusive: 22.4 µM [inhibitor, single point]
COc1ccc(NC(=O)C2CCCN(c3nnc(C)c4c(C)n(-c5ccccc5)nc34)C2)cc1Cl (centres undefined)	inconclusive: 22.4 µM [inhibitor, single point]
COc1ccc(CCNc2c3ccccc3nc3ccccc23)cc1OC	inconclusive: 35.5 µM [inhibitor, single point]
Cc1[nH]c2ccccc2c1C(=O)C(C)OC(=O)c1ccc(NC(=O)CC#N)cc1 (centres undefined)	inconclusive: 17.8 µM [inhibitor, partial curve, poor fit]
CCOc1ccc(CC(=O)NCC(c2cccs2)S(=O)(=O)c2ccc(F)c(C)c2)cc1 (centres undefined)	inactive
O=C(c1ccccc1)c1nn(-c2ccc(Cl)cc2)c(=O)cc1C(F)(F)F	inactive
Cc1cccc(NC(=O)Cn2cnc3c(oc4nc5c(cc43)COC(C)(C)C5)c2=O)c1	inconclusive: 17.8 µM [inhibitor, partial curve, poor fit]
C=C1SC(Nc2c(C)cc(C)cc2C)=NC12CCCCC2	inactive
O=C(Cc1ccccc1)NC(c1ccco1)c1c(O)ccc2ccccc12 (centres undefined)	inconclusive: 3.16 µM [inhibitor, partial curve, poor fit]

Compound	Potency
COc1cc(/C=N/NC(=S)Nc2cccc(Cl)c2C)ccc1OCC(=O)N1CC(C)OC(C)C1 (centres undefined)	inconclusive: 3.16 µM [inhibitor, single point]
Cc1ccc(C2C=C(c3ccccc3)Nc3nc(NS(=O)(=O)c4ccccc4)nn32)cc1 (centres undefined)	inconclusive: 35.5 µM [inhibitor, single point]
CCOc1ccc(NS(=O)(=O)c2cc(C(=O)N3CCC3)ccc2Cl)cc1	inconclusive: 3.98 µM [inhibitor, single point]
CCC(=O)c1ccc(/C=C/c2nc3ccccc3n2C)o1	inactive
Cc1ccc(C(=O)N/C(=C\c2sccc2C)C(=O)NCCCN2CCOCC2)cc1	inconclusive: 35.5 µM [inhibitor, single point]
COc1ccc(C(C)NCCC(c2ccc(OC(C)C)cc2)c2ccccc2OC)cc1 (centres undefined)	inconclusive: 1.41 µM [inhibitor, partial curve, poor fit]
CCc1ccc(NC(=O)CCC(=O)c2ccc(C)cc2)cc1	inconclusive: 7.08 µM [inhibitor, partial curve, poor fit]
CNc1ccc(Br)cc(C(=O)/C=C/c2cccc(OC)c2)c1=O	inconclusive: 35.5 µM [inhibitor, single point]
CC(C)(C)NC(=O)C(c1ccc(-c2ccccc2)cc1)N(C[C@H]1CC[C@@H]([C@@H]2CC[C@H](CO)O2)O1)C(=O)c1ccc2ccccc2c1 (some centres undefined)	inactive
O=C(COc1c(Br)cc(Br)cc1Br)N/N=C/c1ccco1	inconclusive: 35.5 µM [inhibitor, single point]
COc1ccccc1-c1noc(-c2cc(OC)c(OC)c(OC)c2)n1	inactive
COc1ccc(OC)c(CN2C(=O)c3ccccc3C2C(=O)NCC2CCCO2)c1 (centres undefined)	inconclusive: 3.16 µM [inhibitor, partial curve, poor fit]
O=C(CSc1nc2cc(Cl)ccc2s1)c1cc2ccccc2o1	inconclusive: 35.5 µM [inhibitor, single point]
COC(=O)c1scc(C)c1S(=O)(=O)Nc1ccc(C)cc1	inconclusive: 17.8 µM [inhibitor, single point]
CCCCN1C=CC(=C2C(=O)c3ccccc3C2=O)C=C1	inactive
CC1=CC(C)(C)Nc2ccc(OC(=O)CN3C(=O)C4CCCCC4C3=O)cc21 (centres undefined)	active: 31.6 µM
CCOC(=O)c1c(C)sc(-c2c(-c3ccccc3)[nH]c3[nH]c(=O)[nH]c(=O)c23)c1O	inconclusive: 6.31 µM [inhibitor, full curve, poor fit]
COc1ccc(OC)c(Nc2nc3nonc3nc2N2CCCCC2)c1	inconclusive: 3.16 µM [inhibitor, single point]
CC1=C(C(=O)Nc2ccccc2C)C(c2cccs2)n2nc(SCc3ccccc3)nc2N1 (centres undefined)	inconclusive: 10 µM [inhibitor, partial curve, poor fit]

Another view of 3 compounds above.

| Compound | Potency |
| --- | --- |
| CCOc1ccc(NS(=O)(=O)c2cc(C(=O)N3CCC3)ccc2Cl)cc1 | inconclusive: 3.98 µM [inhibitor, single point] |
| CCC(=O)c1ccc(/C=C/c2nc3ccccc3n2C)o1 | inactive |
| Cc1ccc(C(=O)N/C(=C\c2sccc2C)C(=O)NCCCN2CCOCC2)cc1 | inconclusive: 35.5 µM [inhibitor, single point] |
